Results deposited as PubChem BioAssay AID1259424 (University of Nebraska Medical Center, 2018).
The whole screen tested about 14,000 reagents; this is a part drawn at random. 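Higher correlation or smaller distance means closer resemblance to KSR1 loss; control wells, including KSR1 knockdowns, recur on many plates.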 Not stated in the record: the time to read-out.

Screen: 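Find knockdowns that reproduce the expression shifts seen after KSR1 loss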 (primary screen)
Cell system: human HCT116 colon cancer cells
Reagent: siRNA pool against human genes, 50 nM
Read-out: 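Six signature mRNAs by branched-DNA multiplex assay, scaled to two housekeeping genes and non-targeting median, log2; matched to mean KSR1 knockdown profile by Pearson correlation and euclidean distance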
Reading the numbers: mean correlation with KSR1 profile and KSR1 correlation: higher = expression change more like KSR1 knockdown; mean distance from KSR1 profile: higher = expression change less like KSR1 knockdown

Gene	mean correlation with KSR1 profile	mean distance from KSR1 profile	KSR1 correlation, replicate 1	KSR1 correlation, replicate 2	KSR1 correlation, replicate 3
RNASEH2B (ribonuclease H2 subunit B)	0.408	1.59	0.518	0.502	0.368
ZCCHC9 (zinc finger CCHC-type containing 9)	0.86	2.48	0.761	0.771	0.869
QSOX1 (quiescin sulfhydryl oxidase 1)	-0.207	1.8	-0.149	-0.202	-0.323
ARHGEF11 (Rho guanine nucleotide exchange factor 11)	0.55	1.28	0.442	0.637	0.643
NUP58 (nucleoporin 58)	-0.611	2.82	-0.651	-0.502	-0.591
STN1 (STN1 subunit of CST complex)	0.46	1.66	0.201	0.637	0.462
KIFC1 (kinesin family member C1)	0.0286	2.41	-0.0461	0.167	0.0198
BLOC1S1 (biogenesis of lysosomal organelles complex 1 subunit 1)	-0.069	2.69	-0.189	-0.357	0.37
CCL23 (C-C motif chemokine ligand 23)	0.415	1.93	0.455	0.466	0.322
ZFYVE28 (zinc finger FYVE-type containing 28)	-0.31	2.36	-0.373	-0.153	-0.507
TNFSF14 (TNF superfamily member 14)	-0.53	1.8	-0.487	-0.396	-0.487
ACADVL (acyl-CoA dehydrogenase very long chain)	-0.0869	2.98	-0.29	0.307	0.166
C1orf159 (chromosome 1 open reading frame 159)	-0.49	1.98	-0.269	-0.37	-0.555
HLA-G (major histocompatibility complex, class I, G)	-0.116	1.52	0.0712	-0.323	-0.284
SNX27 (sorting nexin 27)	0.308	1.44	-0.0655	0.376	0.204
FAM161A (FAM161 centrosomal protein A)	0.556	3.3	0.516	0.525	0.404
EGR3 (early growth response 3)	-0.155	2.02	0.0425	-0.11	-0.169
NRG3 (neuregulin 3)	0.463	2.09	0.506	0.485	0.392
PIPOX (pipecolic acid and sarcosine oxidase)	-0.566	1.97	-0.637	-0.258	-0.41
TRPV4	0.0778	2.69	0.167	-0.0789	-0.0133
TOX3 (TOX high mobility group box family member 3)	-0.494	1.83	-0.611	-0.507	-0.392
TOP1MT (DNA topoisomerase I mitochondrial)	0.186	2.46	0.0357	0.148	0.0794
CCL4 (C-C motif chemokine ligand 4)	0.28	2.03	0.407	-0.0216	0.038
HDGFL2 (HDGF like 2)	0.596	2.79	0.594	0.657	0.3
TTTY5 (testis expressed transcript, Y-linked 5)	0.957	1.98	0.949	0.885	0.853
HSPA1L (heat shock protein family A (Hsp70) member 1 like)	-0.0833	3.74	-0.182	0.0742	-0.141

Records above whose target name begins with H or h:
Gene	mean correlation with KSR1 profile	mean distance from KSR1 profile	KSR1 correlation, replicate 1	KSR1 correlation, replicate 2	KSR1 correlation, replicate 3
HLA-G (major histocompatibility complex, class I, G)	-0.116	1.52	0.0712	-0.323	-0.284
HDGFL2 (HDGF like 2)	0.596	2.79	0.594	0.657	0.3
HSPA1L (heat shock protein family A (Hsp70) member 1 like)	-0.0833	3.74	-0.182	0.0742	-0.141

Continued:
Gene	mean correlation with KSR1 profile	mean distance from KSR1 profile	KSR1 correlation, replicate 1	KSR1 correlation, replicate 2	KSR1 correlation, replicate 3
RNH1 (ribonuclease/angiogenin inhibitor 1)	-0.107	1.58	-0.158	0.432	-0.175
USB1 (U6 snRNA biogenesis phosphodiesterase 1)	-0.203	4.98	-0.256	0.0279	-0.305
CYP7A1 (cytochrome P450 family 7 subfamily A member 1)	-0.00614	2.82	0.195	-0.45	0.0647
CYP51A1 (cytochrome P450 family 51 subfamily A member 1)	0.421	4.49	0.414	0.274	0.0999
SPOCK1	0.286	2.05	0.319	0.178	0.326
KIF25 (kinesin family member 25)	-0.158	1.99	-0.21	-0.148	-0.169
PCF11 (PCF11 cleavage and polyadenylation factor subunit)	-0.447	6.02	-0.282	-0.676	-0.356
GINS1 (GINS complex subunit 1)	-0.156	2.41	0.0568	-0.264	-0.243
SLC35C1	0.249	1.3	0.398	0.0453	0.102
SNPH (syntaphilin)	-0.201	1.07	-0.414	-0.15	0.518
SV2B (synaptic vesicle glycoprotein 2B)	-0.26	2.23	-0.199	-0.583	-0.0177
RYBP (RING1 and YY1 binding protein)	-0.738	2.03	-0.78	-0.857	-0.436
TBC1D9B (TBC1 domain family member 9B)	-0.338	2.49	-0.288	-0.309	-0.225
BBS1 (Bardet-Biedl syndrome 1)	-0.228	2.03	-0.231	-0.41	-0.304
KAT8 (lysine acetyltransferase 8)	0.433	1.95	0.404	0.268	0.492
GYPC (glycophorin C (Gerbich blood group))	-0.335	4.35	-0.424	-0.501	-0.441
CRTAP (cartilage associated protein)	0.342	1.14	0.462	0.344	0.284
EYA3 (EYA transcriptional coactivator and phosphatase 3)	-0.318	2.23	-0.433	-0.252	-0.339
MAGEA12 (MAGE family member A12)	-0.742	2.1	-0.72	-0.673	-0.254
CNOT11 (CCR4-NOT transcription complex subunit 11)	-0.321	2.02	-0.33	-0.487	-0.377
HEMGN (hemogen)	-0.167	5.24	0.0312	-0.332	-0.237
VAPB (VAMP associated protein B and C)	0.576	3.09	0.692	0.474	0.648
PCDHA13 (protocadherin alpha 13)	0.125	1.71	0.408	-0.0211	-0.346
RBBP5	-0.402	1.49	-0.501	-0.406	-0.174
